Measurements reported in patent US20240374644A1.

Target: CD8 protein
Assay: ELISA, wells coated with 1 ug/ml protein, anti-GST detection

B1: CD3 BiTE (K3Bi), anti-HERV-K 6H5 scFv linked to anti-CD3 scFv (bispecific antibody, not shown: a dimerising Fc or GST)
chain: TGMDIELTQSPSSLAVSLGQRATISCRASESVDSHGTSLMHWYQQKPGQPPKFLIYRASNLESGIPARFSGSGSRTDFTLTINPVETDDVAIYYCQQSNEDPPTFGGGTKLELKEGGGSGGGGSGGGGSAQVKLQQSGPDLVKPGASVKISCKASGYSFTGYYMHWVKQSHGKSLEWIGRVNPNSGGTSYNQKFKDKAILTVDKSSSTAYMELRSLTSEDSAVYYCARSKGNYFYAMDYWGQGTTVTVSSSGGGGSEVQLVESGGGLVQPGGSLRLSCAASGYSFTGYTMNWVRQAPGKGLEWVALINPYKGVSTYNQKFKDRFTISVDKSKNTAYLQMNSLRAEDTAVYYCARSGYYGDSDWYFDVWGQGTLVTVSSGGGGSGGGGSGGGGSDIQMTQSPSSLSASVGDRVTITCRASQDIRNYLNWYQQKPGKAPKLLIYYTSRLESGVPSRFSGSGSGTDYTLTISSLQPEDFATYYCQQGNTLPWTFGQGTKVEIKEQKLISEEDLDYKDDDDKEF
With B1 the binding was “binds”.

Results are given in words; binding and its absence hold for the method and conditions named. Binding calls can cover weak binding; strength is not graded here.
